Source: PubChem BioAssay AID1671195 (Yale University, 2021)
The deposit covers about 22,000 reagents; below is a part drawn at random. About 1,510 of them (6.9%) were called active. 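Active includes knockdowns raising or lowering LDL uptake; positive z-scores mean more uptake, negative mean less.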

- Aim: 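Regulators of LDL receptor activity judged by labelled LDL uptake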 (primary screen)
- System: human Huh7 hepatoma cells
- Reagent: siRNA pool against human genes, 18 nM
- Timing: about 2 to 2.5 days of knockdown, then 8 h LDL uptake
- Challenge: DiI-labelled LDL at 30 µg/ml for 8 h, in lipoprotein-deficient serum medium
- Measured: 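Fluorescent LDL signal imaged in cells, scaled to the plate median, robust z-score for each replicate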
- Reading the numbers: robust z-score: higher = more LDL uptake after knockdown
- Rule for the call: 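Active when two or more replicates show a robust z-score above 2 or below -2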

{"Gene": "H2AC7", "robust z-score, replicate 1": 0.337, "robust z-score, replicate 2": -0.033, "robust z-score, replicate 3": 0.28, "Call": "inactive"}
{"Gene": "RANGRF", "robust z-score, replicate 1": 1.58, "robust z-score, replicate 2": -0.692, "robust z-score, replicate 3": 0.636, "Call": "inactive"}
{"Gene": "OR4X1", "robust z-score, replicate 1": 1.65, "robust z-score, replicate 2": 1.68, "robust z-score, replicate 3": 1.17, "Call": "inactive"}
{"Gene": "RPN2", "robust z-score, replicate 1": -0.573, "robust z-score, replicate 2": 0.125, "robust z-score, replicate 3": -0.6, "Call": "inactive"}
{"Gene": "PGM1", "robust z-score, replicate 1": -0.558, "robust z-score, replicate 2": 0.241, "robust z-score, replicate 3": -0.537, "Call": "inactive"}
{"Gene": "IGLON5", "robust z-score, replicate 1": -0.651, "robust z-score, replicate 2": -0.298, "robust z-score, replicate 3": -0.578, "Call": "inactive"}
{"Gene": "ZNF784", "robust z-score, replicate 1": 0.329, "robust z-score, replicate 2": -1.19, "robust z-score, replicate 3": 0.698, "Call": "inactive"}
{"Gene": "LINC01973", "robust z-score, replicate 1": -0.674, "robust z-score, replicate 2": -0.912, "robust z-score, replicate 3": -0.628, "Call": "inactive"}
{"Gene": "WAS", "robust z-score, replicate 1": -0.447, "robust z-score, replicate 2": -0.324, "robust z-score, replicate 3": 0.759, "Call": "inactive"}
{"Gene": "OLIG2", "robust z-score, replicate 1": -0.935, "robust z-score, replicate 2": -0.915, "robust z-score, replicate 3": -0.976, "Call": "inactive"}
{"Gene": "ANGPTL5", "robust z-score, replicate 1": -1.48, "robust z-score, replicate 2": -1.14, "robust z-score, replicate 3": -0.0548, "Call": "inactive"}
{"Gene": "CD84", "robust z-score, replicate 1": -1.89, "robust z-score, replicate 2": -1.92, "robust z-score, replicate 3": -2.38, "Call": "active"}
{"Gene": "DCTN2", "robust z-score, replicate 1": 0.347, "robust z-score, replicate 2": 0.152, "robust z-score, replicate 3": -0.31, "Call": "inactive"}
{"Gene": "TAF2", "robust z-score, replicate 1": 1.61, "robust z-score, replicate 2": -0.295, "robust z-score, replicate 3": 0.988, "Call": "inactive"}
{"Gene": "ABCC10", "robust z-score, replicate 1": -0.00494, "robust z-score, replicate 2": 0.422, "robust z-score, replicate 3": -0.805, "Call": "inactive"}
{"Gene": "ANKMY1", "robust z-score, replicate 1": 0.748, "robust z-score, replicate 2": 0.383, "robust z-score, replicate 3": 0.374, "Call": "inactive"}
{"Gene": "RBM34", "robust z-score, replicate 1": -0.753, "robust z-score, replicate 2": -1, "robust z-score, replicate 3": -0.246, "Call": "inactive"}
{"Gene": "PLGRKT", "robust z-score, replicate 1": -1.36, "robust z-score, replicate 2": -0.965, "robust z-score, replicate 3": -0.0565, "Call": "inactive"}
{"Gene": "PHB2", "robust z-score, replicate 1": -0.399, "robust z-score, replicate 2": -1.47, "robust z-score, replicate 3": -0.487, "Call": "inactive"}
{"Gene": "BEX4", "robust z-score, replicate 1": 0.501, "robust z-score, replicate 2": 0.359, "robust z-score, replicate 3": 0.676, "Call": "inactive"}
{"Gene": "SH3YL1", "robust z-score, replicate 1": 0.691, "robust z-score, replicate 2": -1.3, "robust z-score, replicate 3": 0.256, "Call": "inactive"}
{"Gene": "GRM6", "robust z-score, replicate 1": 0.526, "robust z-score, replicate 2": -0.184, "robust z-score, replicate 3": 0.0509, "Call": "inactive"}
{"Gene": "FMC1", "robust z-score, replicate 1": 0.273, "robust z-score, replicate 2": 0.14, "robust z-score, replicate 3": 0.688, "Call": "inactive"}
{"Gene": "PKD1L3", "robust z-score, replicate 1": 0.448, "robust z-score, replicate 2": 0.805, "robust z-score, replicate 3": 0.843, "Call": "inactive"}

In a second layout: results already given
{"Gene":"ABCC10","robust z-score, replicate 1":-0.00494,"robust z-score, replicate 2":0.422,"robust z-score, replicate 3":-0.805,"Call":"inactive"}
{"Gene":"ANKMY1","robust z-score, replicate 1":0.748,"robust z-score, replicate 2":0.383,"robust z-score, replicate 3":0.374,"Call":"inactive"}
